What all share (assay): EMSA
In data set [1] the target is MAEL HMG-box (Mus musculus) (UniProt Q8BVN9). As to conditions: 10 mM potassium phosphate pH 7.5, 50 mM KCl, 5% glycerol, 1 mM TCEP, 0.1 mg/ml BSA, 2.5 mM MgCl2, ~1 nM substrate, room temperature 30-60 min, native PAGE in ice bath, recombinant protein, residues 2-86, protein details: GST removed by PreScission (pGex6P2), label: 5' 32P.
The target in data set [2] is T1, MAEL HMG-box R31A (Mus musculus) (UniProt Q8BVN9).
T1 sequence (looked up): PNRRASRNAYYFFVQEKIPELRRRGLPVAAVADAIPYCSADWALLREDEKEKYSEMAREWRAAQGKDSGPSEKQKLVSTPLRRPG
As to conditions: small amount of intermediate complex; 5'-terminal dC and 3'-terminal dG on each strand; 10 mM potassium phosphate pH 7.5, 50 mM KCl, 5% glycerol, 1 mM TCEP, 0.1 mg/ml BSA, 2.5 mM MgCl2, ~1 nM substrate, room temperature 30-60 min; native PAGE in ice bath; recombinant protein; residues 2-86; protein details: GST removed by PreScission (pGex6P2); label: 5' 32P.

The target of data set [3] is MAEL HMG-box R23A (Mus musculus) (UniProt Q8BVN9). As to conditions: large complex formed; 5'-terminal dC and 3'-terminal dG on each strand; 10 mM potassium phosphate pH 7.5, 50 mM KCl, 5% glycerol, 1 mM TCEP, 0.1 mg/ml BSA, 2.5 mM MgCl2, ~1 nM substrate, room temperature 30-60 min; native PAGE in ice bath; recombinant protein; residues 2-86; protein details: GST removed by PreScission (pGex6P2); label: 5' 32P.

For data set [4], the target named is T2, MAEL HMG-box Q16A (Mus musculus) (UniProt Q8BVN9).
T2 sequence (looked up): T1 sequence (looked up) with Q15A, A30R
As to conditions: changed complexes; 5'-terminal dC and 3'-terminal dG on each strand; 10 mM potassium phosphate pH 7.5, 50 mM KCl, 5% glycerol, 1 mM TCEP, 0.1 mg/ml BSA, 2.5 mM MgCl2, ~1 nM substrate, room temperature 30-60 min; native PAGE in ice bath; recombinant protein; residues 2-86; protein details: GST removed by PreScission (pGex6P2); label: 5' 32P.

Data set [5] has as its target T3, MAEL HMG-box R25A (Mus musculus) (UniProt Q8BVN9).
T3 sequence (looked up): T1 sequence (looked up) with R24A, A30R
To be noted: large complex formed; 5'-terminal dC and 3'-terminal dG on each strand; 10 mM potassium phosphate pH 7.5, 50 mM KCl, 5% glycerol, 1 mM TCEP, 0.1 mg/ml BSA, 2.5 mM MgCl2, ~1 nM substrate, room temperature 30-60 min; native PAGE in ice bath; recombinant protein; residues 2-86; protein details: GST removed by PreScission (pGex6P2); label: 5' 32P.

Positions count from the first letter of the chain named. For some of these results: No signal at the amounts used counts as a negative. For some of these results: At least one verdict was read from the data and is not stated in words by the source. The comparison behind a weaker result is the experiment's own reference, which may not be listed here. For some of these results: Where a protein sequence is shown, tags need not be part of it.

From paper PMC4373776 come the findings set out here.

As for “AAATATAATACGACTCACTATAGGGCTACCTACTGCAGCCGGTTACCTTTTATATAAGACAGTCGTAAACAAAGTAGGGGTGATTGTTCAGCCCTATATGTGAGTCGTATTATATTT (double strand) [dsDNA 117 bp]”, the binding result in data set [1] is on record as “no binding”.

Turning to “AACAAAGTAGGGGTGATTGTTCAG (double strand) [dsDNA 24 bp]”, the binding result in data set [1] is “no binding”. Consider “AACAAAGTAGGGGTGATTGTTCAGAACAAAGTAGGGGTGATTGTTCAG (double strand) [dsDNA 48 bp (24-mer repeat)]”, for which, in data set [1], the binding result is “no binding”. With “ATGAGGAACTTACCAGTTTTTCTTATCAATGAAACAATAACAAAGCGC (double strand) [dsDNA 48 bp second]”, the binding result in data set [1] is on record as “no binding”. Regarding “CAGTCGACGTCGTGAC (double strand) [dsDNA 16 bp]”, in data set [1], the binding result was “no binding”. As for “CCCAACACCCGCAAGGGUCCACACGGGACUCCCCACGGG [RNA hairpin 5]”, the binding result in data set [1] was “binds more weakly”. Take “CCGACAGGACUGUCAACCAGGUAAUAUACCACUUGCGG / CCGCAAGUGGUAUAUUACCUGGUACGCGUUCACGG / CCGUGAACGCGUGGUGCGAAUCGG / CCGAUUCGCACCUGACAGUCCUGUCGG [RNA 4WJ]”: the binding result in data set [2], in data set [3], in data set [4] and in data set [5] was “binds more weakly” each time. As for “GCGCAACAAUGCCGG / CCGGCAUUGUUGCGC [dsRNA 15 bp]”, the binding result in data set [1] is on record as “binds more weakly”. Regarding “GGAUCUCUGCACACAACAGAGGUCC [RNA hairpin 4]”, in data set [1] (about 40% bound at high protein, strongest of the hairpins), the binding result is reported as “binds more weakly”.

With “GGAUCUCUGCACACAACAGUUGUCC [RNA hairpin 3]”, in data set [1], the binding result is recorded as “binds more weakly”. For “GGGCCUUCUUACCGGUUGGGGCAUCUUCUGGAUAUAUGCCCAGGAGAGGUAUUGCUGGAUCCUCCGGUAGUACUAUGUCCAAUUUUCUGAGGAACCACCAGACUGAUUUCCAGAGUGGUUGUACAGCUUGCAAUCCCACCAGCAAUGAA [L1_Md_F2 149-nt RNA]”, the binding result in data set [1] (only partly shifted) is “binds more weakly”. With “GGGUGAACAUAGUGGAGCAUGUGUCCUUCUUACCGGUUGGGGCAUCUUCUGGAUAUAUGCCCAGGAGAGGUAUUGCUGGAUCCUCCGGUAGUACUAUGUCCAAUUUUCUGAGGAACCACCAGACUGAUUUCCAGAGUGGUUGUACAGCUUGCAAUCCCACCAGCAAUGAAGGCGUGUUCCUCUUUCUCCACAUCCACGCC [L1_Md_F2 200-nt RNA]”, the binding result in data set [1] (only partly shifted) is on record as “binds more weakly”. Take “GTGTAGTCGTGATAGGAAAAAAATGCAGGGGGTTATAGGG (double strand) [dsDNA 40 bp]”: the binding result in data set [1] was “no binding”.
